# From patent US20110177578
# Sequences of proteins named here, by UniProt entry; tags and fusion partners are left off. Residues count along the entry.
# UniProt Q16552, 24-155: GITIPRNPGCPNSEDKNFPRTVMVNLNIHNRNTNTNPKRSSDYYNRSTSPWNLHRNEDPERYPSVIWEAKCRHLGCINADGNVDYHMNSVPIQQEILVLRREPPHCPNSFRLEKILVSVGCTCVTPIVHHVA
# Columns and labels:
# [1] = target: IL-17 (IL-17A) (Homo sapiens) (UniProt Q16552); experiment: inhibition of the protein; details: 2'-F pyrimidines, purified recombinant protein, protein details: Peprotech
# [2] = target: IL-17 (IL-17A) (Homo sapiens) (UniProt Q16552); experiment: activity in cells; details: 2'-F pyrimidines; dose-dependent suppression of IL-17 (40 ng/ml)-induced IL-6 in NHDF cells; purified recombinant protein; protein details: Peprotech; variant of SEQ 30
# [3] = variant of SEQ 30, dose not given here
# [4] = variant of SEQ 44, dose not given here
# [5] = variant of SEQ 39, dose not given here
sequence,measurement,setting,value
AGAGGUCAGAUGGUCUAGCCGGAGGAGUCAGUAAUCGGUAGACCUAUGCGUG [SEQ 43],functional effect of the aptamer,[1]; [3],active
CAGAUGGGCAGCAGAGGAUAGCGAAGUCAUUGAGCGCCUAUGCGUGCUAGUGUG [SEQ 37],functional effect of the aptamer,"[1]; variant of SEQ 1 (Apt1), dose not given here",active
CUAGCCGGAGGAGUCAGUAAUCGGUAG [SEQ 54],functional effect of the aptamer,[1]; [4],active
GCAGAGGAUAGCGAAGUCAUUGAGCGCCUAUGC [SEQ 39],functional effect of the aptamer,"[1]; variant of SEQ 38, dose not given here",active
GCAGCAGAGGAUAGCGAAGUCAUUGAGCGCCUAUGCGUGC [SEQ 38],functional effect of the aptamer,"[1]; variant of SEQ 37, dose not given here",active
GGAUAGCGAAGUCAUUGAGCGCC [SEQ 40],functional effect of the aptamer,[1]; [5],active
GGGAGCAGGAGAGAGGUCAGAUGAGCGCCAUAGGGUAGAGAAGCCAUUGAUCACCUAUGCGUGCUAGUGUGA [SEQ 5],functional effect of the aptamer,[1]; dose not given here,active
GGGAGCAGGAGAGAGGUCAGAUGCGAUAGCGAAGUCAUUGAGCGCGUGUCCAACCUAUGCGUGCUAGUGUGA [SEQ 29],functional effect of the aptamer,[1]; dose not given here,active
GGGAGCAGGAGAGAGGUCAGAUGCUAUAGCGAAGUCAUUGAGCGAGACAUAGGCCUAUGCGUGCUAGUGUGA [SEQ 4],functional effect of the aptamer,[1]; dose not given here,active
GGGAGCAGGAGAGAGGUCAGAUGGAAGUGGAGUCAGAUAUAGCAAUAUUAUGACCUAUGCGUGCUAGUGUGA [SEQ 31],functional effect of the aptamer,[1]; dose not given here,active
GGGAGCAGGAGAGAGGUCAGAUGGAGGAGACAGUGAUCGUUGACCCACCGGGUCCUAUGCGUGCUAGUGUGA [SEQ 34],functional effect of the aptamer,[1]; dose not given here,active
GGGAGCAGGAGAGAGGUCAGAUGGAGGAGCCAGUGAUCGUUGACCUCAAUGCACCUAUGCGUGCUAGUGUGA [SEQ 33],functional effect of the aptamer,[1]; dose not given here,active
GGGAGCAGGAGAGAGGUCAGAUGGAGGAGGCAGUAAUCGUUGACUGGUAAACCCCUAUGCGUGCUAGUGUGA [SEQ 35],functional effect of the aptamer,[1]; dose not given here,active
GGGAGCAGGAGAGAGGUCAGAUGGGCAGCAGAGGAUAGCGAAGUCAUUGAGCGCCUAUGCGUGCUAGUGUGA [SEQ 1 (Apt1)],functional effect of the aptamer,"[1]; inhibits IL-17 (0.11 uM) binding to IL-17R-Fc by SPR, 0.33 uM aptamer",active
GGGAGCAGGAGAGAGGUCAGAUGGGCAGCGGAGGAUGGCGAAGUCAUUGGGCGCCUAUGCGUGCUGGUGGAG [SEQ 32],functional effect of the aptamer,[1]; dose not given here,active
GGGAGCAGGAGAGAGGUCAGAUGGUCUAGCCGGAGGAGUCAGUAAUCGGUAGACCUAUGCGUGCUAGUGUGA [SEQ 30],functional effect of the aptamer,[1]; dose not given here,active
GGGAGCAGGAGAGAGGUCAGAUGGUGAUGCAUAGGAGUGGAGUCAGAUAUAGCCCUAUGCGUGCUAGUGUGA [SEQ 6],functional effect of the aptamer,[1]; dose not given here,active
GGGAGCAGGAGAGAGGUCAGAUGGUGCACAUGGGAUAGCGAAGUCAUUGAGCGCCUAUGCGUGCUAGUGUGA [SEQ 2],functional effect of the aptamer,[1]; dose not given here,active
GGGAGCAGGAGAGAGGUCAGAUGUAUAGCGAAGUCAUUGAGCGACAAAGCCGGCCUAUGCGUGCUAGUGUGA [SEQ 36],functional effect of the aptamer,[1]; dose not given here,active
GGGAGCAGGAGAGAGGUCAGAUGUGUAAGGUCGGAAGUCAUGAACGGCCCGGACCUAUGCGUGCUAGUGUGA [SEQ 3],functional effect of the aptamer,[1]; dose not given here,active
GGGGAUAGCGAAGUCAUUGAGCGCCCC [SEQ 41],functional effect of the aptamer,[1]; [5],active
GGGGUAGCCGGAGGAGUCAGUAAUCGGUACCCC [SEQ 52],functional effect of the aptamer,"[1]; deoxynucleotides at G1-G4 and C30-C33, variant of SEQ 44, dose not given here",active
GGUCUACCGGAGGAGUCAGUAAUCGGUAGACC [SEQ 49],functional effect of the aptamer,[1]; [4],active
GGUCUAGCCGGAGAAGUCAGUAAUCGGUAGACC [SEQ 50],functional effect of the aptamer,[1]; [4],active
GGUCUAGCCGGAGGAGUCAAUAAUCGGUAGACC [SEQ 51],functional effect of the aptamer,[1]; [4],active
GGUCUAGCCGGAGGAGUCAGUAAUCGG [SEQ 53],functional effect of the aptamer,[1]; [4],active
GGUCUAGCCGGAGGAGUCAGUAAUCGGUAGACC [SEQ 44-1],functional effect of the aptamer,"[1]; 2'-OMe at a19,g20, variant of SEQ 44, dose not given here",active
GGUCUAGCCGGAGGAGUCAGUAAUCGGUAGACC [SEQ 44-2],functional effect of the aptamer,"[1]; 2'-OMe at a15,g16, variant of SEQ 44, dose not given here",active
GGUCUAGCCGGAGGAGUCAGUAAUCGGUAGACC [SEQ 44-3],functional effect of the aptamer,"[1]; 2'-OMe at a6,g7, variant of SEQ 44, dose not given here",active
GGUCUAGCCGGAGGAGUCAGUAAUCGGUAGACC [SEQ 44-4],functional effect of the aptamer,"[1]; 2'-OMe at g10,g11, variant of SEQ 44, dose not given here",active
GGUCUAGCCGGAGGAGUCAGUAAUCGGUAGACC [SEQ 44-5],functional effect of the aptamer,"[1]; 2'-OMe at a12,g13, variant of SEQ 44, dose not given here",active
GGUCUAGCCGGAGGAGUCAGUAAUCGGUAGACC [SEQ 44-6],functional effect of the aptamer,"[1]; 2'-OMe at g14,a15, variant of SEQ 44, dose not given here",active
GGUCUAGCCGGAGGAGUCAGUAAUCGGUAGACC [SEQ 44-7],functional effect of the aptamer,"[1]; 2'-OMe at a22,a23 (printed sequence also shows 2'-OMe at a15), variant of SEQ 44, dose not given here",active
GGUCUAGCCGGAGGAGUCAGUAAUCGGUAGACC [SEQ 44-8],functional effect of the aptamer,"[1]; 5' PEG40 (SUNBRIGHT GL2-400GS2), 3' idT, variant of SEQ 44, dose not given here",active
GGUCUAGCCGGAGGAGUCAGUAAUCGGUAGACC [SEQ 44],functional effect of the aptamer,[2],active
same,functional effect of the aptamer,[1]; [3],active
GUGCACAUGGGAUAGCGAAGUCAUUGAGCGCCUAUGCGUGC [SEQ 42],functional effect of the aptamer,"[1]; variant of SEQ 2, dose not given here",active

# For some of these results: The exact form of at least one protein or probe is not confirmed.
